The supplement of paper PMC6411743
± gives the standard deviation of the averaged measurements. This is a selection; strong and weak results do not stand in their true shares.

Sequences of proteins named here, by UniProt entry; tags and fusion partners are left off. A change or cut given only in a name is not applied to a line headed by its entry.
UniProt P53701: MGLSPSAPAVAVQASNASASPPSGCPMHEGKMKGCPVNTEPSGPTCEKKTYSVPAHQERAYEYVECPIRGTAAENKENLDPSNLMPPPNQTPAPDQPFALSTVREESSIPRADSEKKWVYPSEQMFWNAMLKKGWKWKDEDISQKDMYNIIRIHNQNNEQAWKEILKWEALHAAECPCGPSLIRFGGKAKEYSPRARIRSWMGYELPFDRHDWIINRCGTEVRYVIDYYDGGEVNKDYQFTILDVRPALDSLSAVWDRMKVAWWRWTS
UniProt P55265: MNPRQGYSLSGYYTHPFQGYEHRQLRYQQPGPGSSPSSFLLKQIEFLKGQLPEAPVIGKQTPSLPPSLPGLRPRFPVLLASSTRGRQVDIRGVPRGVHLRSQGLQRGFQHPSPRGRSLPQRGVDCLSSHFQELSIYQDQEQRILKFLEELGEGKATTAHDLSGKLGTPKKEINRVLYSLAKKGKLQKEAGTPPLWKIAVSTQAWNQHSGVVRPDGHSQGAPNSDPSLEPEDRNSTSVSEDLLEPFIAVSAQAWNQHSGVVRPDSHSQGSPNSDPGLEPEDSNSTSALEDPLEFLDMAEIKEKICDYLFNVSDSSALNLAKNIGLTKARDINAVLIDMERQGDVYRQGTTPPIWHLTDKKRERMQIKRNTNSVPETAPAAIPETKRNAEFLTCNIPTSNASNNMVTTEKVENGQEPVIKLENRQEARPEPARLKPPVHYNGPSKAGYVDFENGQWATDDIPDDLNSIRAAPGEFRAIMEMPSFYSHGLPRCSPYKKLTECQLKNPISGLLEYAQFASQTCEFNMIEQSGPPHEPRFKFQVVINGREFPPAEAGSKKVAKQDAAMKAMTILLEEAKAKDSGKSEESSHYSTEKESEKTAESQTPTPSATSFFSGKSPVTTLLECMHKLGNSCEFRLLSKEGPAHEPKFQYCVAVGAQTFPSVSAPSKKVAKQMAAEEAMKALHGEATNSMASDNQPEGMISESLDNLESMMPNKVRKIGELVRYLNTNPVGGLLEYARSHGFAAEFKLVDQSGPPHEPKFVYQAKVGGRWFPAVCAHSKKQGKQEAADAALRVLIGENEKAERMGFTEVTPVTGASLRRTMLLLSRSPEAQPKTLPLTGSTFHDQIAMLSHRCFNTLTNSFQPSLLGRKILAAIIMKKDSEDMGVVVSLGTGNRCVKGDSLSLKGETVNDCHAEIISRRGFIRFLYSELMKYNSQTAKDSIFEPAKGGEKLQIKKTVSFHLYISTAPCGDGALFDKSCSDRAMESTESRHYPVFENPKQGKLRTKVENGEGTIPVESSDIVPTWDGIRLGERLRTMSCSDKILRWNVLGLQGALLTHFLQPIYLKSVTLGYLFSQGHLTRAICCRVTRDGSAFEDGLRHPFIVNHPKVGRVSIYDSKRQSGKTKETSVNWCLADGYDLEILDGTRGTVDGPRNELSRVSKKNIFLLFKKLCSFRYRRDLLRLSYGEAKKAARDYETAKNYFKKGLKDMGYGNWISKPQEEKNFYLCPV
UniProt P55263: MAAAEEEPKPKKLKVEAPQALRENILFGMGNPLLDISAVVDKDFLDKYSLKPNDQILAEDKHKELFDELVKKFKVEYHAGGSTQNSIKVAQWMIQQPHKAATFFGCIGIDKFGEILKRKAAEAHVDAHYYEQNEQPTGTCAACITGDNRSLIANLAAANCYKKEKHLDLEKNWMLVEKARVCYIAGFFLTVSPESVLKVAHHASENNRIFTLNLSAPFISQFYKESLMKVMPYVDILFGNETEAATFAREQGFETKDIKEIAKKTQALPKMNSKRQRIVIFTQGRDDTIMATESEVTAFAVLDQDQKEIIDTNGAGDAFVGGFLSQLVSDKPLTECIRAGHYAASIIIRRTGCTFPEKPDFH
UniProt P52565: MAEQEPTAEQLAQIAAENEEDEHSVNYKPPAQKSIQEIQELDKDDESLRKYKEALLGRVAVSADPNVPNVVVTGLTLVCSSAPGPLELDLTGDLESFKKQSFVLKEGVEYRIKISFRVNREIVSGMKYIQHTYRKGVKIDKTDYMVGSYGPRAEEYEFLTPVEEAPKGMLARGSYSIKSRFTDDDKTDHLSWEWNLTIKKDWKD
UniProt P41236: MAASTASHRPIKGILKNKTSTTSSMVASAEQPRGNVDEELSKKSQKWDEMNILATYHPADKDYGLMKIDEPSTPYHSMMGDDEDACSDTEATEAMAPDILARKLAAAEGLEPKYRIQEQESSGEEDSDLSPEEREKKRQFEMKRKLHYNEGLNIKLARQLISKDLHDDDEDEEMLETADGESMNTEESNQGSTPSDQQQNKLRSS
UniProt P51665: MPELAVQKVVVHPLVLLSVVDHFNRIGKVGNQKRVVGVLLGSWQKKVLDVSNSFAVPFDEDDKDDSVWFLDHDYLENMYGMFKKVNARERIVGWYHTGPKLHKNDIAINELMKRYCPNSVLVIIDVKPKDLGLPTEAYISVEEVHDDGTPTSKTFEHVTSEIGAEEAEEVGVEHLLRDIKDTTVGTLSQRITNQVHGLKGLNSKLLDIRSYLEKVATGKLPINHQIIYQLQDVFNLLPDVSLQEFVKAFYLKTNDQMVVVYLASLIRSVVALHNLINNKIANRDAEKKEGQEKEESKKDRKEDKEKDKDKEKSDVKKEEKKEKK
UniProt P49006: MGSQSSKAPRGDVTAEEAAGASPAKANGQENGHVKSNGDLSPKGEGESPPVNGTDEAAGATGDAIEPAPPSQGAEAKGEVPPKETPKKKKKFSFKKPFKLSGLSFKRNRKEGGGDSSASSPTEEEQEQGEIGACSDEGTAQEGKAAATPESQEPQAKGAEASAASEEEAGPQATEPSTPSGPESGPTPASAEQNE
UniProt P41743, whole entry: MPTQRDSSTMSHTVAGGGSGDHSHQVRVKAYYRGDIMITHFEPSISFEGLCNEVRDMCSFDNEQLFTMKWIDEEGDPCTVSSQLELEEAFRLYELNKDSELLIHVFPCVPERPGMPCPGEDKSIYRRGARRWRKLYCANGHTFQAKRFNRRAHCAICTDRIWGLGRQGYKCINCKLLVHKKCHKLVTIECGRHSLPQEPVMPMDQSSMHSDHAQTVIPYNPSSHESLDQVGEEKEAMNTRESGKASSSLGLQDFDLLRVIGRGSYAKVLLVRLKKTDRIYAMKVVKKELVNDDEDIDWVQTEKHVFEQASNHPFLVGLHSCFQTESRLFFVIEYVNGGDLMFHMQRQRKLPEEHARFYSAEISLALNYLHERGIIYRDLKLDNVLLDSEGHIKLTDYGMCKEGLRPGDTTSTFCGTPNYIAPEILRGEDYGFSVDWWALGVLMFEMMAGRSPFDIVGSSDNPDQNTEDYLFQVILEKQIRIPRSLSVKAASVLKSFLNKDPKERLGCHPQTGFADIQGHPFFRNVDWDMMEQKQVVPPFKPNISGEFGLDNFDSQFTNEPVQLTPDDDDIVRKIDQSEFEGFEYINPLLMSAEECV
UniProt P40938, whole entry: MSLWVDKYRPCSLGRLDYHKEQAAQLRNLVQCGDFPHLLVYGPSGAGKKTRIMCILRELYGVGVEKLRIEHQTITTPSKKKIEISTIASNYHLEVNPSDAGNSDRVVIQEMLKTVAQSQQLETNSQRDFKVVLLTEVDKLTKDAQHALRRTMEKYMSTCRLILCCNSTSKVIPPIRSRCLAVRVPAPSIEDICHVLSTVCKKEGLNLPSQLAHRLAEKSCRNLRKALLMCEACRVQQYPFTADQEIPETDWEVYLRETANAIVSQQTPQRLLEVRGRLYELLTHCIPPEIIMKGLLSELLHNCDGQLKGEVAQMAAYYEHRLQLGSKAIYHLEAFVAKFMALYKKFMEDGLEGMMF
UniProt P54619: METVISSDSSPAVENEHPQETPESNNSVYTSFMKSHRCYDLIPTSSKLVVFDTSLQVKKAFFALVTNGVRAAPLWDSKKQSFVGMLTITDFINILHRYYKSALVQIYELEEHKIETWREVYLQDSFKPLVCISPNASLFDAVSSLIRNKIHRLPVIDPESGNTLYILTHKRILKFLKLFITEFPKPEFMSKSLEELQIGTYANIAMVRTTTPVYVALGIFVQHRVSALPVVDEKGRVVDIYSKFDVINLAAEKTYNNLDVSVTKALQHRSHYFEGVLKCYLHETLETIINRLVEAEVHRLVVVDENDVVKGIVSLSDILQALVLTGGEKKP
UniProt P51513: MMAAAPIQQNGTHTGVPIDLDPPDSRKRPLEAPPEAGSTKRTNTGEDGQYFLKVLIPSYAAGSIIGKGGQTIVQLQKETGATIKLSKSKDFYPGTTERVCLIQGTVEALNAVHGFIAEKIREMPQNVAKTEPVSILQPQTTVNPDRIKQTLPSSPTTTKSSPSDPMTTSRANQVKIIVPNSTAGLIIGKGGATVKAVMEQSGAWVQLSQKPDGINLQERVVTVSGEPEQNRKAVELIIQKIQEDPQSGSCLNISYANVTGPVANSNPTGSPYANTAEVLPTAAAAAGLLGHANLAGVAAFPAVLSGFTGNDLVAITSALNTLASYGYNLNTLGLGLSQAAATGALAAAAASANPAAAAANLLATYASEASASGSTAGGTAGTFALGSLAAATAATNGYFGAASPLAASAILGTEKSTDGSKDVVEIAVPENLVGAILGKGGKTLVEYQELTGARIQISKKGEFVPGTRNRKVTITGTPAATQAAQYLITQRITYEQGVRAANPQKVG
UniProt P50238: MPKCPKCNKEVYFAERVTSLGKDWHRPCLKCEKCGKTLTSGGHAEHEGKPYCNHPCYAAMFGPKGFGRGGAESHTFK
UniProt P51828: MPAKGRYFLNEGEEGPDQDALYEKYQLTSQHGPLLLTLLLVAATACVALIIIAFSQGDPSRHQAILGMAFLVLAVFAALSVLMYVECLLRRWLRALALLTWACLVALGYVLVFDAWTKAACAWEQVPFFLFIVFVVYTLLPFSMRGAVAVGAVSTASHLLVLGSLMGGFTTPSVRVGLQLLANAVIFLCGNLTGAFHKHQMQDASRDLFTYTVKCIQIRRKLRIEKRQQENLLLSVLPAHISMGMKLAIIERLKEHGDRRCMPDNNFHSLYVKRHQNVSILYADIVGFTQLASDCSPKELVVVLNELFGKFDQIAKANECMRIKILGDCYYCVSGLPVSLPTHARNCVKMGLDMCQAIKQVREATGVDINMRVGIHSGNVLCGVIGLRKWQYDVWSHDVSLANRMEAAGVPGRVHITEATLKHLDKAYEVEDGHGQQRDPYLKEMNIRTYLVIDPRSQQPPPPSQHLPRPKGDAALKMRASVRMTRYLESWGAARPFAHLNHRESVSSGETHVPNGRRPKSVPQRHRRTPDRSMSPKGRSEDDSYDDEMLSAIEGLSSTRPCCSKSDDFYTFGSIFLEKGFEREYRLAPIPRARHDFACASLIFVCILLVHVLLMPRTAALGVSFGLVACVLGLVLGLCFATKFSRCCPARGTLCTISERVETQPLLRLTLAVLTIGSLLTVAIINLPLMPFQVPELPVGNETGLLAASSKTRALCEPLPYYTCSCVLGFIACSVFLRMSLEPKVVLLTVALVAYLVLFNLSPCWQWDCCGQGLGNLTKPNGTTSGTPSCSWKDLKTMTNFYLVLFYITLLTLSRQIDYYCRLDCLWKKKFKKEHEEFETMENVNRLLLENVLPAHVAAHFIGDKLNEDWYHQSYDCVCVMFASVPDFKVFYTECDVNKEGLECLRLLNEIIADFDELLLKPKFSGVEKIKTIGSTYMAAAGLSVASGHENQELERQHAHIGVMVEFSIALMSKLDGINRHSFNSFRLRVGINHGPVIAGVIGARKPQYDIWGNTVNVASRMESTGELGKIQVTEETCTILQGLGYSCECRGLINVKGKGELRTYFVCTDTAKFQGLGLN
UniProt P51798: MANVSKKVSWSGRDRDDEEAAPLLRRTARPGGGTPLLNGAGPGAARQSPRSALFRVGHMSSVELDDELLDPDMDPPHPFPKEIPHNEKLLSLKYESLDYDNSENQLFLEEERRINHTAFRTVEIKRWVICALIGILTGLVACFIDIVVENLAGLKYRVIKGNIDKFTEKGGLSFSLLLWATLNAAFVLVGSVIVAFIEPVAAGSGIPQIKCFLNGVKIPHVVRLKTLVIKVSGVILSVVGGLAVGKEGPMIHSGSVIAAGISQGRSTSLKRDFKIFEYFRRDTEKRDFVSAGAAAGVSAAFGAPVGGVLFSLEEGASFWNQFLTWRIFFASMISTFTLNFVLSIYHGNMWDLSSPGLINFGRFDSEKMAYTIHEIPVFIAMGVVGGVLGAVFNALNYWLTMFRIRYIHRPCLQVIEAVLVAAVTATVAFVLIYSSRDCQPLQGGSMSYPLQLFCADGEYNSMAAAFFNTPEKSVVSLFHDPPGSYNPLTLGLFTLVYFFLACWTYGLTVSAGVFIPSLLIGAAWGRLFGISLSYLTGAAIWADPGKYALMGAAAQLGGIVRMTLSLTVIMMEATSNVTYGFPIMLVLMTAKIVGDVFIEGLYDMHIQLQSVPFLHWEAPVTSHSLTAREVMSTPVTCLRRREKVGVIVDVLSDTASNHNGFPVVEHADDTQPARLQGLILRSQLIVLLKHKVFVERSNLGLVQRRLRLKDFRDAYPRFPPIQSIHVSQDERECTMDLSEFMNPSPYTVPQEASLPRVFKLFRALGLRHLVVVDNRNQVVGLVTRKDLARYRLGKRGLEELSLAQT

Compound: Nc1ncnc2c1ncn2[C@@H]1O[C@H](COP(=O)(O)OP(=O)(O)NP(=O)(O)O)[C@@H](O)[C@H]1O [adenylyl imidodiphosphate]
Assay: NP40-soluble protein abundance relative to vehicle (solubility fold change) (ratio); higher = more soluble protein in presence of AMP-PNP
Summary of the method: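 In three independent experiments, Jurkat crude lysate made by Dounce homogenisation was treated for 10 min at room temperature and then 3 min at 37 °C with eight concentrations ranging from 0.1 to 10 mM. It was then solubilised with 0.8% NP40 plus benzonase for 60 min at 4 °C and ultracentrifuged. The supernatant was TMT-labelled for LC-MS/MS, and each value is the fold change against the detergent-processed vehicle for the same replicate, using vsn-normalised intensities.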

Target	NP40-soluble protein abundance (concentration: 1mM)	NP40-soluble protein abundance (concentration: 2mM)	NP40-soluble protein abundance (concentration: 4mM)	NP40-soluble protein abundance (concentration: 6mM)	NP40-soluble protein abundance (concentration: 8mM)	NP40-soluble protein abundance (concentration: 10mM)
CCT5 (UniProt P48643)	1.01 ± 0.069	0.957 ± 0.078	0.955 ± 0.059	0.929 ± 0.12	0.935 ± 0.079	0.904 ± 0.15
UniProt P50750 and related entries	1.05 ± 0.036	1.15 ± 0.089	1.14 ± 0.079	1.22 ± 0.068	1.27 ± 0.11	1.32 ± 0.13
HCCS (UniProt P53701)	1.03 ± 0.015	1.01 ± 0.052	1.03 ± 0.022	1.02 ± 0.016	1.02 ± 0.029	0.986 ± 0.05
PSMC4 (UniProt P43686)	0.906 ± 0.041	0.921 ± 0.06	0.885 ± 0.08	0.871 ± 0.079	0.866 ± 0.082	0.859 ± 0.1
UniProt P55265 and related entries	1.04 ± 0.058	1.03 ± 0.055	1.05 ± 0.062	1.09 ± 0.066	1.08 ± 0.062	1.09 ± 0.096
ADK (UniProt P55263)	0.9872 ± 0.0072	0.9401 ± 0.0044	0.964 ± 0.032	1.01 ± 0.056	1.04 ± 0.033	1.01 ± 0.024
UniProt P48449 and related entries	0.968 ± 0.035	0.857 ± 0.13	0.973 ± 0.026	0.943 ± 0.029	0.995 ± 0.015	0.924 ± 0.033
ARHGDIA (UniProt P52565)	0.978 ± 0.013	1.01 ± 0.015	0.97 ± 0.053	1.004 ± 0.0076	0.9792 ± 0.0045	0.985 ± 0.019
PPP1R2 (UniProt P41236)	1.04 ± 0.072	1.07 ± 0.023	1.03 ± 0.016	1 ± 0.02	0.958 ± 0.044	0.995 ± 0.04
NUDT2 (UniProt P50583)	0.9311 ± 0.0079	0.909 ± 0.027	1.56 ± 0.26	1.22 ± 0.17	1.49 ± 0.23	1.14 ± 0.14
PSMD7 (UniProt P51665)	0.925 ± 0.017	0.882 ± 0.053	0.92 ± 0.083	0.926 ± 0.066	0.926 ± 0.086	0.951 ± 0.14
MARCKSL1 (UniProt P49006)	1.04 ± 0.12	1.03 ± 0.063	0.977 ± 0.12	0.935 ± 0.17	0.891 ± 0.065	0.978 ± 0.047
COPB1 (UniProt P53618)	0.947 ± 0.022	0.897 ± 0.072	0.945 ± 0.035	0.934 ± 0.0042	0.947 ± 0.017	0.904 ± 0.055
HADHA (UniProt P40939)	0.949 ± 0.017	0.873 ± 0.069	0.913 ± 0.043	0.95 ± 0.022	0.962 ± 0.029	0.922 ± 0.056
UniProt P41743	0.989 ± 0.016	0.94 ± 0.099	0.98 ± 0.034	0.94 ± 0.022	0.965 ± 0.038	0.935 ± 0.051
TUFM (UniProt P49411)	1.01 ± 0.044	0.933 ± 0.05	1 ± 0.015	0.9578 ± 0.0077	0.988 ± 0.015	0.905 ± 0.019
RFC3 (UniProt P40938)	0.997 ± 0.034	0.968 ± 0.033	1.06 ± 0.097	1.19 ± 0.1	1.23 ± 0.077	1.24 ± 0.17
UniProt P45983-3|P45983-2	1.06 ± 0.028	1.04 ± 0.044	1.06 ± 0.035	1 ± 0.049	1.03 ± 0.031	1 ± 0.029
UniProt P53384 and related entries	0.979 ± 0.025	0.969 ± 0.057	1 ± 0.031	0.982 ± 0.022	0.97 ± 0.014	0.96 ± 0.063
KPNA1 (UniProt P52294)	1.02 ± 0.012	0.97 ± 0.026	1.035 ± 0.007	0.993 ± 0.031	1.02 ± 0.035	0.989 ± 0.03
UniProt P54819 and related entries	1.01 ± 0.036	1.06 ± 0.025	0.996 ± 0.073	0.9613 ± 0.0091	0.937 ± 0.028	0.928 ± 0.068
KPNA2 (UniProt P52292)	1 ± 0.02	1.008 ± 0.0099	1.03 ± 0.033	1.01 ± 0.021	1.01 ± 0.031	1.05 ± 0.048
RPL14 (UniProt P50914)	0.983 ± 0.082	0.958 ± 0.057	0.938 ± 0.13	0.862 ± 0.15	0.759 ± 0.071	0.894 ± 0.24
UniProt P54619 and related entries	0.993 ± 0.015	0.871 ± 0.092	0.964 ± 0.035	0.943 ± 0.025	1.01 ± 0.02	0.905 ± 0.045
UniProt P51513 and related entries	0.999 ± 0.023	1 ± 0.013	0.99 ± 0.034	1 ± 0.016	0.987 ± 0.032	1.01 ± 0.025
CAPZA1 (UniProt P52907)	0.9903 ± 0.0052	0.972 ± 0.02	0.984 ± 0.024	1.002 ± 0.0036	0.992 ± 0.016	1 ± 0.017
RPIA (UniProt P49247)	1.01 ± 0.053	0.972 ± 0.017	1.01 ± 0.032	1.05 ± 0.031	1.07 ± 0.035	1.044 ± 0.0066
CRIP1 (UniProt P50238)	1.01 ± 0.041	1.1 ± 0.033	0.963 ± 0.059	0.955 ± 0.027	0.962 ± 0.045	0.951 ± 0.063
ADCY7 (UniProt P51828)	1.009 ± 0.0081	1.01 ± 0.022	0.964 ± 0.043	0.992 ± 0.016	0.98 ± 0.011	0.981 ± 0.032
UniProt P51798 and related entries	1 ± 0.019	1.03 ± 0.019	0.991 ± 0.037	0.968 ± 0.037	0.964 ± 0.039	0.965 ± 0.013
